Reference: article PMC9941469
These are yes or no findings as the source states them, for the method shown. In cells and extracts the contact can be indirect. Some results given as binding are weak or reduced against the parent protein; the word gives no strength.

Protein sequences, listed by entry. Tags and fused reporters are not part of them.
UniProt P70217: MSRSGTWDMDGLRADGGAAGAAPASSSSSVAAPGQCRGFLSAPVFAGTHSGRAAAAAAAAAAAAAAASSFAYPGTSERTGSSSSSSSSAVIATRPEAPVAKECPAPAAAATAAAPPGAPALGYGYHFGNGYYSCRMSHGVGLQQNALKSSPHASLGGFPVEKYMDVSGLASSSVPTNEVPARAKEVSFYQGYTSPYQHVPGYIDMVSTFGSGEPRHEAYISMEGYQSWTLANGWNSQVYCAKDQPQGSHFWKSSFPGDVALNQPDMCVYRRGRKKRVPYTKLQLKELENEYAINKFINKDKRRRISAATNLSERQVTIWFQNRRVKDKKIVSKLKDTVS
UniProt P97454: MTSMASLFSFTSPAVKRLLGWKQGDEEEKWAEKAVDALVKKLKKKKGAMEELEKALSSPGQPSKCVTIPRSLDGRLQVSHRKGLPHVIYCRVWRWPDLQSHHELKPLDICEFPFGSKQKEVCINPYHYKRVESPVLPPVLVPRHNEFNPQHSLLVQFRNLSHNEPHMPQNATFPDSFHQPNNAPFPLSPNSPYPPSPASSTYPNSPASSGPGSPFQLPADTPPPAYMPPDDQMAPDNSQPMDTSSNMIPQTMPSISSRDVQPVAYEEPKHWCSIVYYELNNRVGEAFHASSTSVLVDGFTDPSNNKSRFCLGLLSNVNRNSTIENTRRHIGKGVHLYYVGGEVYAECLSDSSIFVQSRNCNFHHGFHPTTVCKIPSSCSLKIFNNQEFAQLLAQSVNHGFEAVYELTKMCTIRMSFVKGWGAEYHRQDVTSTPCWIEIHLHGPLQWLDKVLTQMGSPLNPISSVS

Biological target: Hoxd13 (homeobox D13), wild type, mouse (mouse (endogenous in osteoclasts derived from bone marrow monocytes)) (UniProt P70217)
Assay: co-IP; lysates (IP lysis buffer) of osteoclasts derived from Hoxd13 wild or mutant bone marrow monocytes; Co-IP kit (Thermo Scientific Pierce); which protein was precipitated is not told

binding: binds
Substance: phosphorylated Smad5 (pSmad5), mouse (from UniProt P97454 1-465)
